From patent US20240190939A1

Legend:
recombinant CD155 [1] = assay: dual ELISA, OX40-Fc captured, detected with recombinant CD155
recombinant CD155 [2] = assay: Dual ELISA: OX40-Fc capture, CD155-His detection, 6x His HRP
CD155PVR-His = assay: ELISA, CD155PVR-His captured, detected with IgG

binding (recombinant CD155 [1]): binds | binding (recombinant CD155 [2]): binds | binding (CD155PVR-His): binds
B1: human TIGIT-Fc-OX40L chimeric protein (Fc fusion)
chain: MMTGTIETTGNISAEKGGSIILQCHLSSTTAQVTQVNWEQQDQLLAICNADLGWHISPSFKDRVAPGPGLGLTLQSLTVNDTGEYFCIYHTYPDGTYTGRIFLEVLESSVAEHGARFQIPSKYGPPCPPCPAPEFLGGPSVFLFPPKPKDQLMISRTPEVTCVVVDVSQEDPEVQFNWYVDGVEVHNAKTKPREEQFNSTYRVVSVLTVLHQDWLSGKEYKCKVSSKGLPSSIEKTISNATGQPREPQVYTLPPSQEEMTKNQVSLTCLVKGFYPSDIAVEWESNGQPENNYKTTPPVLDSDGSFFLYSRLTVDKSRWQEGNVFSCSVLHEALHNHYTQKSLSLSLGKIEGRMDQVSHRYPRIQSIKVQFTEYKKEKGFILTSQKEDEIMKVQNNSVIINCDGFYLISLKGYFSQEVNISLHYQKDEEPLFQLKKVRSVNSLMVASLTYKDKVYLNVTTDNTSLDDFHVNGGELILIHQNPGEFCVL

Results are given in words; binding and its absence hold for the method and conditions named. A result given as binding can be weak or reduced; the word gives no strength. Where a sequence is shown, tags or fusion partners need not be part of it.
